Reference: patent US12595239B2, “Substituted isoxazoline derivatives” (BASF SE, priority 2021, dated 2026)
Some entries share one result that the patent states for a list of compounds. At least one structure is not confirmed: it was looked up by name or label, or the drawing left a doubt.

Assays:
Format in all cases: in vivo
Plutella xylostella = test: B.6 Diamond Back Moth, cabbage leaf disc dip test; conditions: 300 ppm; 3rd instar larvae, 72 hours after treatment
Outline: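 Cabbage leaf discs were dipped in compound in 1:1 water:acetone with 0.01% surfactant, air-dried, then infested with ten 3rd instar larvae. Mortality read at 72 h after treatment, with feeding damage scored on a 0–100% scale.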

Dichromothrips corbetti = test: B.7 Orchid Thrips, floral-immersion test; conditions: 300 ppm; adult thrips, 72 hours after treatment
Outline: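 Orchid petals were dipped in compound diluted in 1:1 acetone:water with 0.01% v/v Kinetic, dried, then sealed with about 20 lab-colony adult thrips. Arenas were held in the dark at about 28 °C, and percent mortality was scored 72 h after treatment.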

Heliothis virescens = test: B.4 Tobacco Budworm, microtiter plate diet test; conditions: 2500 ppm; egg and larval mortality, 5 days
Outline: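 Compounds in 25% DMSO/75% water sprayed at various concentrations onto diet in microtiter wells each holding 15-25 H. virescens eggs, two replicates. Plates kept 5 days at about 28±1 °C and 80±5% relative humidity; egg and larval mortality then scored visually.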

Spodoptera eridania = test: B.11 Southern Armyworm 2nd instar larvae, lima bean foliar spray test; conditions: 300 ppm, 4 days after treatment
Outline: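 Compounds diluted in 50% acetone/water with 0.01% nonionic surfactant and electrostatically sprayed onto lima bean plants (Sieva) at 1st true leaf stage. After drying, 10–11 larvae per bagged pot, held at about 25 °C, 20–40% RH, 14:10 photoperiod. Mortality and reduced feeding scored at 4 days versus untreated plants.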

Myzus persicae = test: B.3 Green Peach Aphid (mixed life stages), systemic artificial diet test; conditions: 2500 ppm; treated aphid diet, 3 days
Outline: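 Compounds, formulated in 25% DMSO/75% water, were mixed at several concentrations into liquid artificial diet under a membrane, two replicates. 5–8 adult aphids fed on treated diet for 3 days at about 23±1 °C, 50±5% RH. Mortality and fecundity were scored visually.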

Aedes aegypti = conditions: 2500 ppm; larval mortality, 2 days
Anthonomus grandis = test: B.1 Boll weevil (Anthonomus grandis), 96-well microtiter plate diet test; conditions: 2500 ppm; egg and larval mortality, 5 days

Measured: mortality in comparison with untreated controls

CCN1OCC(NC(=O)c2cc(NC3=NOC(c4cc(Cl)cc(Cl)c4)(C(F)(F)F)C3)ccc2OC(F)(F)F)C1=O (stereo not drawn) [I-103]
at least 75%: all assays above

N#CC1(NC(=O)c2cc(NC3=NOC(c4ccc(F)c(C(F)(F)F)c4)(C(F)(F)F)C3)ccc2Cl)CC1 (stereo not drawn) [I-39]
at least 75%: all assays above

O=C(NCC(F)(F)F)c1cc(NC2=NOC(c3cc(Cl)cc(Cl)c3)(C(F)(F)F)C2)ccc1OC(F)(F)F (stereo not drawn) [I-71]
at least 75%: all assays above

O=C(NCC(F)(F)F)c1cc(NC2=NOC(c3cc(Cl)cc(Cl)c3)(C(F)(F)F)C2)cnc1Cl (stereo not drawn) [I-84]
at least 75%: all assays above

N#CC1(N(CC2CC2)C(=O)c2cc(NC3=NOC(c4cc(Cl)cc(Cl)c4)(C(F)(F)F)C3)ccc2Cl)CC1 (stereo not drawn) [I-46]
at least 75%: all assays above

N#CC1(NC(=O)c2cc(NC3=NOC(c4cccc(C(F)(F)F)c4)(C(F)(F)F)C3)ccc2Cl)CC1 (stereo not drawn) [I-40]
at least 75%: all assays above

O=C(NC1CC1)c1cc(NC2=NOC(c3cc(Cl)cc(Cl)c3)(C(F)(F)F)C2)cnc1Cl (stereo not drawn) [I-85]
at least 75%: all assays above

O=C(NC1(c2cnoc2)CC1)c1cc(NC2=NOC(c3cc(Cl)c(F)c(Cl)c3)(C(F)(F)F)C2)ccc1Cl (stereo not drawn) [I-164]
at least 75%: all assays above

N#Cc1ccc(NC(=O)c2cc(NC3=NOC(c4ccc(F)c(Cl)c4)(C(F)(F)F)C3)ccc2Cl)c(F)c1 (stereo not drawn) [I-49]
at least 75%: all assays above

O=C(NC1CSC1)c1cc(NC2=NOC(c3cc(Cl)c(F)c(Cl)c3)(C(F)(F)F)C2)ccc1Cl (stereo not drawn) [I-35]
at least 75%: all assays above

CN(C(=O)c1cc(NC2=NOC(c3cc(Cl)c(F)c(Cl)c3)(C(F)(F)F)C2)ccc1Cl)C1(C#N)CC1 (stereo not drawn) [I-97]
at least 75%: all assays above

O=C(Nc1ccc(F)nc1F)c1cc(NC2=NOC(c3ccc(F)c(Cl)c3)(C(F)(F)F)C2)ccc1Cl (stereo not drawn) [I-50]
at least 75%: all assays above

CCN1OCC(NC(=O)c2cc(NC3=NOC(c4cc(Cl)cc(Cl)c4)(C(F)(F)F)C3)cnc2Cl)C1=O (stereo not drawn) [I-106]
at least 75%: all assays above

O=C(NC1(c2cocn2)CC1)c1cc(NC2=NOC(c3cc(Cl)cc(Cl)c3)(C(F)(F)F)C2)ccc1Cl (stereo not drawn) [I-152]
at least 75%: all assays above

O=C(NC1(C(F)(F)F)CC1)c1cc(NC2=NOC(c3ccc(F)c(Cl)c3)(C(F)(F)F)C2)ccc1Cl (stereo not drawn) [I-43]
at least 75%: all assays above

Cc1ccc(NC2=NOC(c3cc(Cl)cc(Cl)c3)(C(F)(F)F)C2)cc1C(=O)Nc1ccc(F)cn1 (stereo not drawn) [I-169]
at least 75%: all assays above

O=C(Nc1ccc(C(F)(F)F)cc1F)c1cc(NC2=NOC(c3ccc(F)c(Cl)c3)(C(F)(F)F)C2)ccc1Cl (stereo not drawn) [I-45]
at least 75%: all assays above

O=C(Nc1ccc(F)cc1F)c1cc(NC2=NOC(c3cc(Cl)cc(Cl)c3)(C(F)(F)F)C2)ccc1OC(F)F (stereo not drawn) [I-74]
at least 75%: all assays above
